Experimental data: PubChem BioAssay AID1224830 (NIAID, 2016)

Test: 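Genes whose knock-down alters the TNF-alpha reporter response to LPS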 (primary screen)
Cells: human THP-1 monocytic leukaemia cells, TNF dual-luciferase reporter clone, PMA-differentiated to macrophage-like cells
Knock-down reagent: siRNA pool against human genes, 50 nM
Timing: LPS for 4 h, given about 3 days after siRNA transfection
Treatment: bacterial LPS (TLR4 ligand), 10 ng/ml
Measured: 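TNF firefly reporter luminescence divided by renilla, normalised to the plate median, then turned into a robust z-score for each replicate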
Reading the numbers: TNF reporter robust z-score: higher = stronger TNF reporter response to LPS
Hit rule: 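a well is active when its z-score exceeds 2.8 or falls below -1.5; control wells carry no call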
Shown is a random part of about 18,000 deposited reagents. Of all reagents, about 2,900 (16%) are marked active. 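Calls are made per well; low scores hint the gene aids the LPS response, high scores that it dampens it.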 Repeated entries: four replicate wells of each siRNA pool.

The first 6 entries, to show the layout:
WFS1 → TNF reporter robust z-score = 0.34; Outcome = inactive
WFS1 → TNF reporter robust z-score = 0.06; Outcome = inactive
WFS1 → TNF reporter robust z-score = 0.69; Outcome = inactive
WFS1 → TNF reporter robust z-score = 1.82; Outcome = inactive
ITPKB → TNF reporter robust z-score = 0.7; Outcome = inactive
ITPKB → TNF reporter robust z-score = 1.21; Outcome = inactive

The list itself, repeating the preview:
WFS1 → TNF reporter robust z-score = 0.34; Outcome = inactive
WFS1 → TNF reporter robust z-score = 0.06; Outcome = inactive
WFS1 → TNF reporter robust z-score = 0.69; Outcome = inactive
WFS1 → TNF reporter robust z-score = 1.82; Outcome = inactive
ITPKB → TNF reporter robust z-score = 0.7; Outcome = inactive
ITPKB → TNF reporter robust z-score = 1.21; Outcome = inactive
ITPKB → TNF reporter robust z-score = 3.6; Outcome = active
ITPKB → TNF reporter robust z-score = 2.67; Outcome = inactive
SGO2 → TNF reporter robust z-score = 0.82; Outcome = inactive
SGO2 → TNF reporter robust z-score = 0.43; Outcome = inactive
SGO2 → TNF reporter robust z-score = 0.87; Outcome = inactive
HDX → TNF reporter robust z-score = -0.62; Outcome = inactive
HDX → TNF reporter robust z-score = 0.13; Outcome = inactive
HDX → TNF reporter robust z-score = 0.25; Outcome = inactive
LHFPL4 → TNF reporter robust z-score = -1.45; Outcome = inactive
LHFPL4 → TNF reporter robust z-score = -0.91; Outcome = inactive
LHFPL4 → TNF reporter robust z-score = -1.35; Outcome = inactive
PHF23 → TNF reporter robust z-score = -1; Outcome = inactive
PHF23 → TNF reporter robust z-score = 0.15; Outcome = inactive
PHF23 → TNF reporter robust z-score = -1.38; Outcome = inactive
PHF23 → TNF reporter robust z-score = -0.54; Outcome = inactive
SMARCE1 → TNF reporter robust z-score = -1.76; Outcome = active
SMARCE1 → TNF reporter robust z-score = -1.73; Outcome = active
SMARCE1 → TNF reporter robust z-score = -1.98; Outcome = active
SMARCE1 → TNF reporter robust z-score = -1.62; Outcome = active
CD46 → TNF reporter robust z-score = -0.76; Outcome = inactive
CD46 → TNF reporter robust z-score = 0.17; Outcome = inactive
CD46 → TNF reporter robust z-score = -0.99; Outcome = inactive
CD46 → TNF reporter robust z-score = -0.55; Outcome = inactive
TTLL5 → TNF reporter robust z-score = 3.7; Outcome = active
TTLL5 → TNF reporter robust z-score = 0.02; Outcome = inactive
TTLL5 → TNF reporter robust z-score = -0.09; Outcome = inactive
TTLL5 → TNF reporter robust z-score = 0.58; Outcome = inactive
TSPEAR → TNF reporter robust z-score = 0.51; Outcome = inactive
TSPEAR → TNF reporter robust z-score = 1.35; Outcome = inactive
TSPEAR → TNF reporter robust z-score = 1.08; Outcome = inactive
TSPEAR → TNF reporter robust z-score = 1.07; Outcome = inactive
RABL3 → TNF reporter robust z-score = -0.87; Outcome = inactive
RABL3 → TNF reporter robust z-score = -0.85; Outcome = inactive
RABL3 → TNF reporter robust z-score = -0.77; Outcome = inactive
RABL3 → TNF reporter robust z-score = -0.65; Outcome = inactive
ABCA8 → TNF reporter robust z-score = 11.4; Outcome = active
ABCA8 → TNF reporter robust z-score = 0.19; Outcome = inactive
ABCA8 → TNF reporter robust z-score = -0.28; Outcome = inactive
ABCA8 → TNF reporter robust z-score = 0.17; Outcome = inactive
SLCO5A1 → TNF reporter robust z-score = -0.88; Outcome = inactive
SLCO5A1 → TNF reporter robust z-score = -0.31; Outcome = inactive
SLCO5A1 → TNF reporter robust z-score = 0.38; Outcome = inactive
SLCO5A1 → TNF reporter robust z-score = 0.93; Outcome = inactive
